# Data: PubChem BioAssay AID2685 (National Center for Advancing Translational Sciences (NCATS), 2010)
# Some of the results follow. Shown are side measurements of this screen, not its main read-out; they come without a call. Most of these compounds were active or inconclusive in the main read-out, so they are no random draw. Potencies come from curve fits of mixed quality, noted in brackets.
# Experiment: qHTS Assay for Lipid Storage Modulators in Drosophila S3 Cells;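 as to cell number change: cells counted by Cell Tracker Red CMTPX staining in the red channel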
# Settings: BODIPY lipid droplet fluorescence, 18-24 h; for cell number change: measured here: cell count max response, cells fed with added oleic acid
# Summary of the method: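 Drosophila S3 cells loaded with oleic acid (400 uM, as added) and compounds at several concentrations; lipid droplets imaged by 488-nm laser-scanning cytometry, 500–530 nm intensity and object ratio to cell channel. Percent activity normalized to 20 uM Triacsin C.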
# [1] = measured here: lipid fluorescence (Fed channel) AC50, cells fed with added oleic acid
# [2] = measured here: cell number channel AC50, cells fed with added oleic acid
SMILES,cell number change [%],AC50 [1],AC50 [2]
Cn1c(/C=C/c2ccc([N+](=O)[O-])o2)nc2ccccc2c1=O,-9.62,"3.26 µM [falling, full curve]",
COc1cc(C2C(C#N)=C(N)OC3=C2C(=O)CCC3)cc(OC)c1OC(=O)N1CCOCC1 (stereo not given),-23.3,"0.206 µM [falling, full curve]",
O=C(CN1CCN(S(=O)(=O)c2cccc(Br)c2)CC1)NCCc1cccs1,-27.1,"7.31 µM [rising, partial curve]","0.82 µM [falling, full curve, poor fit]"
O=C(COC(=O)c1ccccc1[N+](=O)[O-])Nc1cccnc1Cl,52.2,,"4.11 µM [rising, partial curve]"
COc1cccc(C(c2nnnn2C(C)(C)C)N2CCN(C3CCCCC3)CC2)c1OC (stereo not given),3.71,,"0.13 µM [falling, full curve, poor fit]"
CC(C(=O)NN=C(c1ccccc1)c1ccccc1)N1CCCC1 (stereo not given),-18.8,,
COc1ccccc1C(=O)N/C(=C/c1cccc([N+](=O)[O-])c1)C(=O)Nc1cccc(C(=O)O)c1,33.7,"4.11 µM [rising, full curve, poor fit]","5.8 µM [rising, full curve, poor fit]"
COc1ccccc1NC1=C(C)C(=O)CC1,,"29.1 µM [rising, single point]",
CC(O)c1c(-c2ccccc2)nn(C)c1Cl (stereo not given),-12.3,,
CC(C(=O)Nc1ccc(N2CCOCC2)cc1)N1C(=O)NC(C)(C)C1=O (stereo not given),31.5,,"23.1 µM [rising, single point]"
COc1cccc(NC(=O)CN2CCN(CC(=O)Nc3ccccc3Cl)CC2)c1,-1.06,,
CC(C)c1ccc(OCC(=O)NNC(=S)NC(=O)c2cccs2)c(Br)c1,10.3,,
O=C(O)Cc1ccc(NC(=O)Nc2ccc3c(c2)OCO3)cc1,-9.41,"6.51 µM [falling, single point]",
CCN1CCN(c2ccc(Nc3ccnc4ccccc34)cc2)CC1,-55.4,"14.6 µM [falling, partial curve]","14.6 µM [falling, partial curve]"
Cc1cc(C)c(OCC(=O)Nc2ccc(S(=O)(=O)N3CCOCC3)cc2)c(C)c1,,"2.06 µM [falling, partial curve, poor fit]",
Cc1cc(=O)n2nc(N3CCC(C(=O)N4CCN(C)CC4)CC3)sc2n1,,"14.6 µM [falling, single point]",
Cc1ccc(OCCC(=O)OCC(=O)NC2CCCC2)cc1,-20.4,,"1.3 µM [falling, full curve, poor fit]"
Cc1nn(-c2ccccc2)c(N)c1C(O)(CSc1nccn1C)C(F)(F)F (stereo not given),,"0.651 µM [falling, single point]",
COc1ccc(NC(=O)C2CCCN(S(C)(=O)=O)C2)cc1OC (stereo not given),10.4,"0.0058 µM [rising, full curve, poor fit]",

# Compounds shown so far that have a thiophene ring, fused or not:
SMILES,cell number change [%],AC50 [1],AC50 [2]
O=C(CN1CCN(S(=O)(=O)c2cccc(Br)c2)CC1)NCCc1cccs1,-27.1,"7.31 µM [rising, partial curve]","0.82 µM [falling, full curve, poor fit]"
CC(C)c1ccc(OCC(=O)NNC(=S)NC(=O)c2cccs2)c(Br)c1,10.3,,

# Later entries

SMILES,cell number change [%],AC50 [1],AC50 [2]
CC(C)Oc1ccc(CNC(=O)CC(c2ccccc2)c2cc(Cl)ccc2O)cc1 (stereo not given),-42.4,"29.1 µM [falling, single point]","8.2 µM [falling, partial curve]"
Cc1cccc(NC(=O)c2cc(-c3ccco3)nc3ccccc23)n1,108,"5.8 µM [rising, full curve]","4.61 µM [rising, full curve]"
CCCn1c(SC(C)C(=O)NCC2CCCO2)nc2sc(CC)cc2c1=O (stereo not given),14.8,"4.61 µM [rising, full curve, poor fit]",
COc1ccccc1NC(=O)c1ccccc1NS(=O)(=O)c1cccs1,0.83,"3.26 µM [falling, single point]",
CCOC(=O)C1=C(C)OC2(O)c3ccccc3C(=O)C12O (stereo not given),-38,"3.66 µM [falling, single point]","8.2 µM [falling, partial curve, poor fit]"
COc1ccccc1-c1c(C)nn2c(N3CCCCCC3)cc(C)nc12,-24.3,"29.1 µM [falling, single point]",
COC(=O)CN(C(=S)Nc1ccc(F)cc1)C1CC(=O)N(c2ccc(OC)cc2)C1=O (stereo not given),,,"4.11 µM [rising, partial curve]"
CC1CCN(C(=O)c2nc[nH]c2C(=O)O[C@H](C)c2ccccc2)CC1,3.62,"1.46 µM [rising, partial curve, poor fit]",
Cc1ccc(S(=O)(=O)NNC(=O)c2ccc(F)cc2)cc1,12.9,"29.1 µM [rising, single point]",
CCc1ccccc1-n1ncc(C(=O)Nc2ccccc2OC)c1C,,"23.1 µM [rising, single point]",
CC(Sc1nnnn1C)C(=O)Nc1ccc2c(c1)OCCO2 (stereo not given),-30.9,"7.31 µM [falling, partial curve, poor fit]","5.8 µM [falling, partial curve, poor fit]"
COc1cc2c(cc1OC)C1Cc3ccc(OC)c(OC)c3CN1CC2 (stereo not given),10.4,"29.1 µM [rising, single point]",
Cc1ccc([N+](=O)[O-])cc1N(CC(=O)N1CCCCC1)S(C)(=O)=O,,"6.51 µM [rising, single point]","6.51 µM [rising, single point]"
O=C(COC(=O)C1=COCCO1)NCCCc1ccccc1,1.67,"0.00517 µM [falling, full curve, poor fit]",
O=C(CN1CCN(c2ccc(Cl)cc2)CC1)N1CCCC1,4.24,,
Cc1cc(Cl)ccc1NC(=S)NCCC(c1ccccc1)c1ccccc1,,,"3.66 µM [rising, single point]"
O=C(c1ccc(N2C(=O)c3ccccc3C2=O)cc1)N1CCCCC1,22.2,,"0.82 µM [rising, full curve, poor fit]"
CCN(CC)S(=O)(=O)c1ccc(Cl)c(NC(=O)COC(=O)c2cc(-c3ccccc3Cl)nc3ccccc23)c1,29.6,"3.26 µM [rising, full curve]",
CCn1cc(/C=N\NC(=O)COc2cccc(C)c2C)c(C)n1,,"2.31 µM [falling, partial curve, poor fit]",
